{"source": "patent US5545517A", "about": "“Selective metal ion detection using a photoluminescent indicator binding to a macromolecule-metal ion complex” (The United States of America as represented by the …, priority 1994, dated 1996)", "key": {"[1]": {"tested_on": "carbonic anhydrase", "details": "values of Chen and Kernohan, cited from earlier work"}, "[2]": {"tested_on": "carbonic anhydrase", "assay": "fluorescence lifetimes of free and enzyme-bound dansylamide", "format": "physicochemical", "details": "measured in this laboratory"}}, "note": "Read-outs that look alike come from different tables or passages of the source."}
{"smiles": "CN(C)c1cccc2c(S(N)(=O)=O)cccc12", "note": "[dansylamide]", "values": [{"measurement": "fluorescence lifetime of bound dansylamide", "setting": "[1]; bound", "value": 22.1, "unit": "nsec"}, {"measurement": "fluorescence lifetime of free dansylamide", "setting": "[1]; free", "value": 3.9, "unit": "nsec"}, {"measurement": "fluorescence lifetime of bound dansylamide", "setting": "[2]; bound to carbonic anhydrase", "value": "20.3±0.2", "unit": "nsec"}, {"measurement": "fluorescence lifetime of free dansylamide", "setting": "[2]; free in solution", "value": "3.4±0.5", "unit": "nsec"}]}
